Measured values reported in patent publication US20240180880A1, “METHODS OF USING EHMT2 INHIBITORS IN TREATING OR PREVENTING BLOOD DISORDERS” (Epizyme, Inc., priority 2017, published 2024).
At least one structure is not confirmed: it was looked up by name or label, or the drawing left a doubt.

Tested on: Human CD34+ progenitor cells
Assay: Human CD34+ progenitors assay for fetal hemoglobin induction, % HbF+ cells by FACS (healthy donors)
Assay type: cell-based
Settings: evaluated in the context of cell viability
Source text: An in-vitro system to test the ability of compound to induce fetal hemoglobin expression was developed. This system used Human CD34+ progenitor cells freshly isolated from healthy donors blood collections. Peripheral blood mononuclear cells (PBMCs) were isolated from whole blood by density gradient centrifugation using SepMatem-50 and Lymphoprep™ from Stem Cell Technologies. CD34^+ hematopoietic progenitor cells (HSPCs) were isolated from PBMCs by magnetic separation using Stem Cells Technologies CD34+ positive selection/isolation kit (Stem Cell Technologies, #18056). CD34 cells were cultured using a 2-phase 14 day culture system. During phase 1 (day 0 to day 7) cells were expanded. […] At day 14 cells were harvested for Fluorescent Activated Cell Sorting (FACS) analysis and for HbF quantitation by Mass spectrometry. […] Data was analyzed using FlowJo software. % HbF^+ cells and ratios H3/H3K9me2 intensities were calculated for CD71^+/CD235a^+ gated populations.
A list of pharmacological agents was evaluated for their potential to induce fetal Hemoglobin (HbF) in order to identify combination partners for our EHMT1/2 inhibitors. HbF can be induced by toxicity; therefore, the potential of the agents to induce HbF were evaluated in the context of cell viability. […] The EHMT1/2 inhibitor Compound 205 was evaluated in combination with a fixed dose of 10 μM Hydroxyurea and 0.1 μM Pomalidomide. […]

SMILES | Observed Induction of % HbF + Human Erythroid Progenitors
Nc1ncn([C@H]2C[C@H](O)[C@@H](CO)O2)c(=O)n1 [Decitabine] | Yes
Cc1[nH]c2ccccc2c1CCNCc1ccc(/C=C/C(=O)NO)cc1 [Panobinostat, panobinostat] | No
